# Results: PMC7969620
# By UniProt entry, the sequences of proteins in these tests, tags left out.
# UniProt Q676U5: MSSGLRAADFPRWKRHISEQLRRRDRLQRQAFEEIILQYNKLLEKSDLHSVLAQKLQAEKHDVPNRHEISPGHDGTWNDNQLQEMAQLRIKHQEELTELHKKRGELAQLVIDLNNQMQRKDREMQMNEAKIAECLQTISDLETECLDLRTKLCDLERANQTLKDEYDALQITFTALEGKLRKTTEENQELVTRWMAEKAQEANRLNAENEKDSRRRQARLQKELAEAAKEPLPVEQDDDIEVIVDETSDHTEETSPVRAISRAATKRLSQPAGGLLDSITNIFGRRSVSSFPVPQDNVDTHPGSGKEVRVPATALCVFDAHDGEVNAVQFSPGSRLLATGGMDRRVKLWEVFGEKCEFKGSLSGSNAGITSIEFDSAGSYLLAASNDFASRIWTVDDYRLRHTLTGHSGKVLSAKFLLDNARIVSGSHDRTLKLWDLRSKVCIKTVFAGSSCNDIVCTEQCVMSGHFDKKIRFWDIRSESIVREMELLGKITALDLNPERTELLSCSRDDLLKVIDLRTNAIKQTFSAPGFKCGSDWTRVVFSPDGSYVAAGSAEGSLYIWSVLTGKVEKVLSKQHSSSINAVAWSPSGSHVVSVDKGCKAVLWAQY
# No constants are given. Whether binding was seen depends on the method and setting. In cells and extracts the contact can be indirect. Some entries that bind do so weakly or less than the wild type. Tags and fused reporters may be left off the sequences shown.
# Columns and labels:
# GST-Rab26 (human) = molecular target: T1, GST-Rab26 (human) (UniProt Q9ULW5); test: pull-down; GST fusions coupled to GST-Sepharose 4B resin, incubated with supernatants of lysates of transfected 293t cells (20 mM HEPES pH 7.4, 150 mM NaCl, 0.5% Triton X-100) at 4 °C overnight; resin washed three times with lysis buffer containing 500, 300, 100 mM NaCl; bound proteins by western blot; only the target purified
# T1 sequence: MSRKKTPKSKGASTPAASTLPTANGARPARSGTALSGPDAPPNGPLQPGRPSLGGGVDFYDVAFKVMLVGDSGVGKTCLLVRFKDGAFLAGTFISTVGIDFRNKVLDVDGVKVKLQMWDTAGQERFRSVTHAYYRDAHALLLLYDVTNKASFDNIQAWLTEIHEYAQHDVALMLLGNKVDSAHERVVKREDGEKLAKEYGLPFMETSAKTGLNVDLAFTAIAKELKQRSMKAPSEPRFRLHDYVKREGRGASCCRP
# GST-Rab26b (human) = molecular target: T2, GST-Rab26b (human) (UniProt Q9ULW5); test: as above
# T2 sequence: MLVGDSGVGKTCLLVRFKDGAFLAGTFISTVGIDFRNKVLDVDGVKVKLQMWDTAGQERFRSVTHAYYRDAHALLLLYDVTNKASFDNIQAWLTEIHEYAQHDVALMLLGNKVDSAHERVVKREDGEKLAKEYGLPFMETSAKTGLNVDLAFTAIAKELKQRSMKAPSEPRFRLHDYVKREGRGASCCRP
substance,measurement,setting,value
ATG16L1 (from UniProt Q676U5 1-607),binding,GST-Rab26 (human),binds
same,binding,GST-Rab26b (human),no binding
